Measured values published in publication doi:10.1101/2020.01.01.892539.
These are yes or no findings as the source states them, for the method shown. Binding seen in cells or lysates may run through a third protein. Some binding calls cover weakened binding; strength is not graded here.

Chains of the proteins cited; added tags and fusions are not shown. Residues count along the entry.
UniProt P20029, residues 20-655: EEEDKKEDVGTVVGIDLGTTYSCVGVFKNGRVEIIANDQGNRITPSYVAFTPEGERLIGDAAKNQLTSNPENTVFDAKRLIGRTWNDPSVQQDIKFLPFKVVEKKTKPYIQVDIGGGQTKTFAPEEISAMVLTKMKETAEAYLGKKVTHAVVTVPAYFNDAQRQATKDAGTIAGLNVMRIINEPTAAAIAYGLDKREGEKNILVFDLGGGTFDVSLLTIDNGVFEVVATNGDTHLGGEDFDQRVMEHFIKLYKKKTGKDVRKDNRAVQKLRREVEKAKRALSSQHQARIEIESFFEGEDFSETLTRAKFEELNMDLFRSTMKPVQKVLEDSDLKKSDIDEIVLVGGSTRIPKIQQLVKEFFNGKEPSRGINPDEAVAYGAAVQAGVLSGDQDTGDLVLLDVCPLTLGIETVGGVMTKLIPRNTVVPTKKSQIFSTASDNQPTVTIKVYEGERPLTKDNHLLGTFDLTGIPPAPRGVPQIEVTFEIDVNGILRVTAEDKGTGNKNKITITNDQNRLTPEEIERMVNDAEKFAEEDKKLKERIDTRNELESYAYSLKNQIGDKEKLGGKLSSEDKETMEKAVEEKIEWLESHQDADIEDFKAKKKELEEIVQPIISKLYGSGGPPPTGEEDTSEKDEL

Target: BiP-FLAG (BiP/GRP78 with a 3xFLAG tag inserted just upstream of the KDEL signal) (mouse) (UniProt P20029)
Experiment: co-IP

| binding | Binder |
| --- | --- |
| binds | P58^IPK (protein, UniProt Q91YW3 32-504) GVNADVEKHLELGKKLLAAGQLADALSQFHAAVDGDPDNYIAYYRRATVFLAMGKSKAALPDLTKVIALKMDFTAARLQRGHLLLKQGKLDEAEDDFKKVLKSNPSEQEEKEAESQLVKADEMQRLRSQALDAFDGADYTAAITFLDKILEVCVWDAELRELRAECFIKEGEPRKAISDLKAASKLKSDNTEAFYKISTLYYQLGDHELSLSEVRECLKLDQDHKRCFAHYKQVKKLNKLIESAEELIRDGRYTDATSKYESVMKTEPSVAEYTVRSKERICHCFSKDEKPVEAIRICSEVLQMEPDNVNALKDRAEAYLIEEMYDEAIQDYEAAQEHNENDQQIREGLEKAQRLLKQSQKRDYYKILGVKRNAKKQEIIKAYRKLALQWHPDNFQNEEEKKKAEKKFIDIAAAKEVLSDPEMRKKFDDGEDPLDAESQQGGGGNPFHRSWNSWQGFNPFSSGGPFRFKFHFN |
| binds | PDIA6 (protein, UniProt Q922R8 20-440) LYSSSDDVIELTPSNFNREVIQSDGLWLVEFYAPWCGHCQRLTPEWKKAATALKDVVKVGAVNADKHQSLGGQYGVQGFPTIKIFGANKNKPEDYQGGRTGEAIVDAALSALRQLVKDRLGGRSGGYSSGKQGRGDSSSKKDVVELTDDTFDKNVLDSEDVWMVEFYAPWCGHCKNLEPEWAAAATEVKEQTKGKVKLAAVDATVNQVLASRYGIKGFPTIKIFQKGESPVDYDGGRTRSDIVSRALDLFSDNAPPPELLEIINEDIAKKTCEEHQLCVVAVLPHILDTGAAGRNSYLEVLLKLADKYKKKMWGWLWTEAGAQYELENALGIGGFGYPAMAAINARKMKFALLKGSFSEQGINEFLRELSFGRGSTAPVGGGSFPTITPREPWDGKDGELPVEDDIDLSDVELDDLEKDEL |
| binds | GRP170 (protein, UniProt Q9JKR6 33-999) LAVMSVDLGSESMKVAIVKPGVPMEIVLNKESRRKTPVTVTLKENERFLGDSAAGMAIKNPKATLRYFQHLLGKQADNPHVALYRSRFPEHELIVDPQRQTVRFQISPQLQFSPEEVLGMVLNYSRSLAEDFAEQPIKDAVITVPAFFNQAERRAVLQAARMAGLKVLQLINDNTATALSYGVFRRKDINSTAQNVMFYDMGSGSTVCTIVTYQTVKTKEAGMQPQLQIRGVGFDRTLGGLEMELRLREHLAKLFNEQRKGQKAKDVRENPRAMAKLLREANRLKTVLSANADHMAQIEGLMDDVDFKAKVTRVEFEELCADLFDRVPGPVQQALQSAEMSLDQIEQVILVGGATRVPKVQEVLLKAVGKEELGKNINADEAAAMGAVYQAAALSKAFKVKPFVVRDAVIYPILVEFTREVEEEPGLRSLKHNKRVLFSRMGPYPQRKVITFNRYSHDFNFHINYGDLGFLGPEDLRVFGSQNLTTVKLKGVGESFKKYPDYESKGIKAHFNLDESGVLSLDRVESVFETLVEDSPEEESTLTKLGNTISSLFGGGTSSDAKENGTDAVQEEEESPAEGSKDEPAEQGELKEEAEPPAEETSQPPPSEPKGDAAREGEKPDEKESGDKPEAQKPNEKGQAGPEGAAPAPEEDKKPKPARKQKMVEEIGVELAVLDLPDLPEDELARSVQKLEELTLRDLEKQEREKAANSLEAFIFETQDKLYQPEYQEVSTEEQREEISGKLSATSTWLEDEGFGATTVMLKDKLAELRKLCQGLFFRVEERRKWPERLSALDNLLNHSSIFLKGARLIPEMDQVFTEVEMTTLEKVINDTWAWKNATLAEQAKLPATEKPVLLSKDIEAKMMALDREVQYLLNKAKFTKPRPRPKDKNGTRAEPPLNASAGDQEEKVIPPAGQTEEAKPILEPDKEETGTEPADSEPLELGGPGAGPEQEEQSAGQKRPSKNDEL |
